No constants are given. Whether binding was seen depends on the method and setting. Some binding calls cover weakened binding; strength is not graded here.
B1: TIA1 (antibody, V domains shown)
VH: QMQLVQSGGEVKKPGASVKVSCKTSGYRFTSYGISWVRQAPGQGLEWMGWISGYNGETNYAETLQGRLTLTTDTSTSTAYMELGSLRPDDTAVYYCTRDGHSPYFDYWGQGTLVTVSS
VL: QAVLTQPASVSGSPGQSVTISCTGTSSDVGGYNYVSWYQQHPGKAPKLMIYEVSKRPSGIPERFSGSNSGNTATLTISRVEAGDEADYYCQVWDSSSDHWVFGRGTKLTVL
B2: TIC4 (antibody, V domains shown)
VH: QVQLVQSGGGLVQPGGSLRLSCAASGFSFSTYAMSWVRQAPGKGLEWVSGISGSGRTPYYADSVKGRFTISRDNDKNSLYLQITSLRAEDTAVYYCARNDIFTGSLPDWGQGTLVTVSS
VL: SYVLTQPRSVSGSPGQSVTLSCTGTSSDVGGYNYVSWYQQHPGKAPKLMISDVSARPSGISNRFSGSKSGNTASLTISGLQAEDEADYYCSSFTSSSTYVFGAGTKVTVL
B3: TIC5 (antibody, V domains shown)
VH: EVQLVESGGGLVKPGGSLRLSCTGSGFSLSNYYMTWIRQTPERGLEWMSYLSGSGNLISYADSIKGRFTISRDSAENSLSLQMDSLRVEDTAVYYCAREYYGTFDYWGQGTLVTVSS
VL: AIQLTQSPSTLSASVGDRVTITCRASQTISTWLAWYQQKPGKAPKLLIYKASTLETGVPSRFSGSGSGTEFTLTISSLQPEDFATYFCQQSYSTPYTFGQGTKLEIK
B4: TIC8 (antibody, V domains shown)
VH: QVQLVQSGAEVKKPGASVKVSCKASGYTFSNYEINWVRQATGQGLEWMGWMNPNSGKIGYEQKFQGRVTMTRNTSISSAYMELSSLRSDDTAVYYCARGNGDLGAADYWGQGTLVTVSS
VL: VIWMTQSPSSLSASVGDRVTITCRASQSIGRYLNWYQQKPGKAPKLLIYAASNLQSGVPSRFSGSGSGTDFSVTISSLQPEDFATYYCQQSYSTPRTFGQGTKLEIK
B5: TIC11 (antibody, V domains shown)
VH: EVQLVESGGGLIQPGESLRLSCAVSGFTVRGNYVAWVRQAPGKGLEWVATINGGGSPYYADSVKGRFTISRDDSKNTVDLQMNILRVEDTAIYYCARDTYCTAGICPSSPVWGQGTTVTVSS
VL: QAVLTQPPSVSGAPGQRVTISCTGSSSNIGAGYDVHWYQQLPGTAPKLLIYGNSNRPSGVPDRFSGSKSGTSASLAITGLQAEDEAVYFCQSHDTSVTGVVFGGGTKVTVL
B6: TID1 (antibody, V domains shown)
VH: QVQLVESGGGLVKPGGSLRLSCAASGFTFSSYSMNWVRQAPGKGLEWVSSISSSSSYIYYADSVKGRFTISRDNAKNSLYLQMNSLRAEDTAVYYCASGDHMDVWGQGTTVTVSS
VL: QPVLTQPPSASGTPGQRVTISCSGSSSNVGTNYVYWYQQLPGTAPKLLTHINNQRPSGVPDRFSGSKSGTSASLAISGLRSEQEADYYCAAWDATLSAWVFGGGTKLTVL
B7: TID6 (antibody, V domains shown)
VH: EVQLLESGGGVVQPGRSLRLSCAAPGFSFSSYGMHWVRQAPGKGLEWVALISYDGSNKYYADSVKGRFTISRDNSMSTLYLQMNSLRAEDTAVYYCAKPRGYTGYGDYYYGLDVWGQGTTVTVSS
VL: QSALTQPPSVSKGLRQTATLTCTGNSNNVGNQGAAWLQQHQGHPPKLLSYRNNNRPSGISERFSASRSGNTASLTITGLQSEQEADYYCSAWDRSLSALVFGGGTKLTVL
B8: TID10 (antibody, V domains shown)
VH: QVQLVESGGGLVQPGGSLRLSCAASGFPFNTYWMNWVRQAPGKGLEWVANINPDGSEKYYLDSVKGRFTISRDNAKNSLFLQMNSLRAEDTAVYYCGVVVWGRGTTVTVSS
VL: DIVMTQSPLSLPVTLGQPASISCRSSQSLVHSDGNTYLNWFQQRPGQSPRRLIYRVSNRDSGVPDRFSGSGSGTDFTLKISRVEAEDVGIYYCMQSTHWPLTFGQGTKVEIK
B9: TID12 (antibody, V domains shown)
VH: QMQLVQSGAEVKKPGASVKVSCKASGYTFTSYGISWVRQAPGQGLEWMGWISAYNGNTNYAQKLQGRVTMTTDTSTSTAYMELRSLRSDDTAVYYCARETGYNWNGLDFDYWGQGTLVTVSS
VL: QAGLTQPPSVSAAPGQKVTISCSGSSSNIGNNYVSWYQQLPGTAPKLLIYDNNKRPSGIPDRFSGSKSGTSATLGITGLQTGDEADYYCGTWDSSLSAGEFGGGTKLTVL
B10: TIE3 (antibody, V domains shown)
VH: QMQLVQSGAEVKKPGASVKVSCKASGYTFTNYYMHWVRQAPGQGLEWMGWINPNSDNTAYAQKFQGRVTMTRNTSISTVYMELSSLRSEQTAVYYCARGDSTFGYMDVWGKGTTVTVSS
VL: QSVLTQPPSVSGAPGQRVTISCTGSSSNIAAHYVHWYQQLPGTAPKLLIFGNNNRPSGVPDRFSGSKSGTSASLAISGLRSEQEADYYCAAWDDSLSGWVFGGGTQLTVL
B11: TIE7 (antibody, V domains shown)
VH: EVQLVESGGGLAEDGGSLTLSCAASGFTFGNHAMRWVRQAPGKGLEWISSISENSRNTFYSDSVKGRFTISRDNSRNTLYLQMNSLRAEDTAVYYCARERGHSYGYGYWGQGTLVTVSS
VL: DVVMTQSPLSLPVTLGQPASISCRSSQSLVHSDGNTYLNWFHQRPGQSPRRLIYKVSNRDSGVPDRFSGSGSGTDFTLKISRVEAEDVGVYYCMQSTQWPLTFGQGTKVEIK
B12: TIE9 (antibody, V domains shown)
VH: QVQLQQSGPGLVKPSQSLSLACAISGDSVSSNSAAWNWIRQSPSRGLEWLGRTYYRSKWYTDYAVSLKSRITVSVDTSKNQFSLQLNSVTPEDTAVYYCATGGLNYGYFDSWGRGTLVTVSS
VL: QSALTQPPSASGSPGQSVTISCTGTSSDVGGYKYVSWYQQHPGKAPKLMIYDVSNRPSGVSNRFSGSKSGNTASLTISGLQAEDEADYYCSSYTSSSAYVFGTGTKVTVL
B13: TIF3 (antibody, V domains shown)
VH: QVQLVQSGSEVKTPGASVKVSCKASGYALSSYDINWVRQAPGQGLEWIGWMNPNSDRRGYAQKFQGRVTMTTDTSISTAYMELSSLTSEQTAMYYCAREKTRGRFDYWGQGTLVTVSS
VL: VIWMTQSPSSLSASVGDRVTITCRASQTMNNYLNWYQQKPGKAPKLLIYAASTLQSGVPSRFSGSRSGTEFTLTISGLQPEDFATYYCQQSYSTPTFGQGTKVEIK
B14: TIF8 (antibody, V domains shown)
VH: EVQLVESGAEVKKPGASVKVSCKASGYTFSSYYIHWVRQAPGQGLEWMGVINPTGGSTHYAEKFQGRVTMTRDTSTSTVYMQLSSLRSEQTAVYYCARDQYGWGNYYYYGMDVWGQGTTVTVSS
VL: DIQLTQSPGTLSVSPGERVTLSCRASQSVGDTYLAWYQQKPGQAPRLLIYGASTRATGVPARFSGSGSGTEFTLTISSLQSEQFAVYYCQQYGSSPLTFGGGTKVEIK
B15: TIG1 (antibody, V domains shown)
VH: QVQLVQSGAEVKKPGASVKVSCKASGYTFTSYYIHWVRQAPGQGLEWMGVINPTGGSTHYAEKFQGRVTMTRDTSTSTVYMELSSLRSDDTAVYYCARDHYGWGNYYYYGMDVWGQGTTVTVSS
VL: AIQMTQSPGTLSLSPGERATLSCRASQSVSSSYLAWYQQKPGQAPRLLIYGASSRATGIPDRFSGSGSGTDFTLTISRLEPEDFAVYYCQQYENSPLTFGGGTKVEIK
B16: TIG3 (antibody, V domains shown)
VH: QVQLQQWGAGLLKPSETLSLTCAVSGGSFSGYYWSWIRQTPGKGLEWMAEINHSGDTDYNPSLKSRVTISVDTSKNQFSLNLTSVTAADTAVYFCARGSRRGRYFPQPFDFWGQGTLVTVSS
VL: SSELTQDPAVSVALGQTVRITCQGDSLRSYYASWYQQKPGQAPVLVIYGKNNRPSGIPDRFSGSSSGNTASLTITGAQAEDEADYYCNSRDSSGNHVVFGGGTKLTVL
B17: TIA6 (antibody, V domains shown)
VH: QVQLVQSGAEVKKPGASVKVSCKASGYTFTSYGISWVRQAPGQGLEWMGWISAYNGNTNYAQKLQGRVTMTTDTSTSTAYMELRSLRSDDTAVYYCAKGDYFDYWGQGTLVTVSS
VL: SYELMQPASVSGSPGQSITISCTGTSYDVGRYNYVSWYQQHPGKAPKLIIYGVSSRPAGASNRFSGSKSGNTASLTISGLQTEDEADYYCSSYTSSDAYVFGTGTKLTVL
B18: TIG6 (antibody, V domains shown)
VH: QVQLVESGGALVQPGGSLRLSCAASGFTFSNDWMSWVRQAPGKGLEWVANINQDGSEKNYVDSVKGRFTISRDNAKNSLYLQMNSLRGDDTAVYYCARGSGSSWFIWGQGTLVTVSS
VL: EIVLTQSPLSLPVTLGQPASISCRSSQSLVHGSGNTYLNWFQQRPGQSPRRLIYEVSNRDSGVPDRFSGSGSGTDFTLKISRVEAEDVGVYYCMQSSFWPLTFGGGTKVEIK
B19: TIG9 (antibody, V domains shown)
VH: EVQLVQSGAEVKKPGASVKVSCKASGYTFTDYYIHWVRQAPGQGLEWMGWINANSGATNYAQNFQGRVTMTRDTSIRSAYMELSNLTSDDTAVYYCARDRATTPSFDYWGQGTLVTVSS
VL: AIQLTQSPSSLSAPVGDRVTIACRASQTIGHYLNWYQQKSGKAPKLLIYTATSLQSGVPSRFSGSGYGTDFTLTIGNLQPEDSATYYCQQSFGIPYTFGQGTKVDIK
B20: TIG10 (antibody, V domains shown)
VH: EVQLVESGAEVRKPGASVKISCKTPGYSFTERSIHWVRQAPGQGLEWIGRTIPTLEMASYAQKFQGRVTISADKSTRTGYMELRDLRSEQTAVYYCSTQTPSYTDHWGQGTLVTVSS
VL: EIVLTQSPSSLSVTLGQPASISCRSSQSLVHRDGNTYLNWFQQRPGQSPRRLIYRVSNRDSGVPDRFSGSGSGTDFTLKISRVEAEDVGVYYCMQSTQPPLTFGGGTKVEIK
B21: TIH1 (antibody, V domains shown)
VH: QVQLVESGGGLVQPGGSLRLSCAASGFIFSDYFMTWMRQAPGKGLEWVAYIGDRATPIRYADSVKGRFTISRDNANNSVYLQMNSLGVEDTAVYYCARGGLSTDYWGQGTLVTVSS
VL: LPVLTQPPSASGTPGQRVTISCSGSSSNIGSNTVNWYQRLPGTAPKLLIYGNSNRPSGVPDRFSGSKSGTSASLAITGLQAEDEADYYCQSYDSSLSGSTVFGGGTKLTVL
B22: TIH5 (antibody, V domains shown)
VH: QVQLVESGGGLVKPGGSLRLSCAASGFTFSDYYMSWIRQAPGKGLEWVSSISNSGSTIYYADSVKGRFTISRDNAKNSLYLQLNSLRDDDTAVYYCARNWQGADYGMDVWGQGTTVTVSS
VL: DIVMTQSPSSLSASVGDRVTITCRASQNISSYLNWYQQKPGRAPKLLIYAASSLQSGVPSRFSGSGSGTDFTLTISSLQPEDFATYYCQQSYSTPLTFGGGTKVEIK

The chains behind the UniProt entries cited, without tags or fusion partners. Residues count along the entry.
UniProt Q8TDQ0, residues 22-301: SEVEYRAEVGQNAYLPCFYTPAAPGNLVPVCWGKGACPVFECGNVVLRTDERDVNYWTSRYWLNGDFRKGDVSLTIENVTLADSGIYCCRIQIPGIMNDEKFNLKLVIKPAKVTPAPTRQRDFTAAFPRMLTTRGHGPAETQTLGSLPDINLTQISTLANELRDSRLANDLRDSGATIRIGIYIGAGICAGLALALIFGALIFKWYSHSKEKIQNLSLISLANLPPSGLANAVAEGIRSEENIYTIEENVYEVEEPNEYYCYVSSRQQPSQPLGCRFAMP

target: human TIM3 (human) (UniProt Q8TDQ0); assay: identification and selection; method not described

binding, binds:
B1, B2, B3, B4, B5, B6, B7, B8, B9, B10, B11, B12, B13, B14, B15, B16, B17, B18, B19, B20, B21, B22
